The values below come from patent publication US20060269557A1 (CITY OF HOPE, published 2006).

Results are given in words; binding and its absence hold for the method and conditions named. Some results given as binding are weak or reduced against the parent protein; the word gives no strength. Where a sequence is shown, tags or fusion partners need not be part of it.

The target of experiment [1] is T1, bacterial expressed GST-PSCA (UniProt O43653).
T1 sequence (looked up): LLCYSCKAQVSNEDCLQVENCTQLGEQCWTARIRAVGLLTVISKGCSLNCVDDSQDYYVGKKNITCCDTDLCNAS
Put plainly: Western blot. (A western blot detects proteins with antibodies after separation by electrophoresis.)

Experiment [2] has as its target T2, soluble PSCA fused human IgG1 or mouse IgG2a Fc (UniProt O43653).
T2 sequence (looked up): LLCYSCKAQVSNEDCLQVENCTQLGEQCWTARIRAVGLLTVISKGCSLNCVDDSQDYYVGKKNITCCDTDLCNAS
The experiment in a line: antigen binding activity, comparison of the two humanized antibodies.

B1: murine monoclonal antibody 1G8 (antibody, V domains shown)
VH: EVQLQQSGAELVRSGASVKLSCTASGFNIKDYYIHWVNQRPDQGLEWIGWIDPENGDTEFVPKFQGKATMTADIFSNTAYLHLSSLTSEDTAVYYCKTGGFWGQGTLVTVSA
VL: QVVLTQSPAIMSASPGEKVTMACSASSSVRFIHWYQQKSGTSPKRWIYDTSKLASGVPTRFSGSGSGTSYSLTISTMEAEDAATYYCQQWSSSPFTFGSGTKLIIK
notes: Intact murine antibody from hybridoma; also called mu1G8; parental mu1G8
B1: the binding entry in experiment [1] is on record as “binds”.

B2: humanized 1G8 antibody hu1G8-B (antibody, V domains shown)
VH: EVQLVESGGGLVQPGGSLRLSCAASGFNIKDYYIHWVRQAPGKGLEWVAWIDPENGDTEFVPKFQGRATISADTSKNTAYLQMNSLRAEDTAVYYCKTGGFWGQGTLVTVSS
VL: DIQLTQSPSSLSASVGDRVTITCSASSSVRFIHWYQQKPGKAPKRLIYDTSKLASGVPSRFSGSGSGTDFTLTISSLQPEDFATYYCQQWSSSPFTFGQGTKVEIK
notes: Labelled with 124I in the immunoreactivity assays; also called M6B; clone 2B3
For B2, the binding result in experiment [2] was “binds”.

B3: humanized 1G8 antibody hu1G8-A (antibody, V domains shown)
VH: EVQLVESGGGLVQPGGSLRLSCAASGFNIKDYYIHWVRQAPGKGLEWVAWIDPENGDTEFADSVKGRFTISADTSKNTAYLQMNSLRAEDTAVYYCKTGGFWGQGTLVTVSS
VL: DIQLTQSPSSLSASVGDRVTITCSASSSVRFIHWYQQKPGKAPKRLIYDTSKLASGVPSRFSGSGSGTDFTLTISSLQPEDFATYYCQQWSSSPFTFGQGTKVEIK
notes: also called M6A
With B3, the binding entry in experiment [2] was “binds”.
